Measurements taken from US20240115729A1, “COMPOSITIONS AND METHODS FOR TARGETED ANTIFIBROTIC THERAPY IN CHRONIC PANCREATITIS” (University of Virginia Patent Foundation, priority 2021, published 2024).
These are yes or no findings as the source states them, for the method shown. Some binding calls cover weakened binding; strength is not graded here.

Chains of the proteins cited; added tags and fusions are not shown. Residues count along the entry.
UniProt P08121, residues 155-1219: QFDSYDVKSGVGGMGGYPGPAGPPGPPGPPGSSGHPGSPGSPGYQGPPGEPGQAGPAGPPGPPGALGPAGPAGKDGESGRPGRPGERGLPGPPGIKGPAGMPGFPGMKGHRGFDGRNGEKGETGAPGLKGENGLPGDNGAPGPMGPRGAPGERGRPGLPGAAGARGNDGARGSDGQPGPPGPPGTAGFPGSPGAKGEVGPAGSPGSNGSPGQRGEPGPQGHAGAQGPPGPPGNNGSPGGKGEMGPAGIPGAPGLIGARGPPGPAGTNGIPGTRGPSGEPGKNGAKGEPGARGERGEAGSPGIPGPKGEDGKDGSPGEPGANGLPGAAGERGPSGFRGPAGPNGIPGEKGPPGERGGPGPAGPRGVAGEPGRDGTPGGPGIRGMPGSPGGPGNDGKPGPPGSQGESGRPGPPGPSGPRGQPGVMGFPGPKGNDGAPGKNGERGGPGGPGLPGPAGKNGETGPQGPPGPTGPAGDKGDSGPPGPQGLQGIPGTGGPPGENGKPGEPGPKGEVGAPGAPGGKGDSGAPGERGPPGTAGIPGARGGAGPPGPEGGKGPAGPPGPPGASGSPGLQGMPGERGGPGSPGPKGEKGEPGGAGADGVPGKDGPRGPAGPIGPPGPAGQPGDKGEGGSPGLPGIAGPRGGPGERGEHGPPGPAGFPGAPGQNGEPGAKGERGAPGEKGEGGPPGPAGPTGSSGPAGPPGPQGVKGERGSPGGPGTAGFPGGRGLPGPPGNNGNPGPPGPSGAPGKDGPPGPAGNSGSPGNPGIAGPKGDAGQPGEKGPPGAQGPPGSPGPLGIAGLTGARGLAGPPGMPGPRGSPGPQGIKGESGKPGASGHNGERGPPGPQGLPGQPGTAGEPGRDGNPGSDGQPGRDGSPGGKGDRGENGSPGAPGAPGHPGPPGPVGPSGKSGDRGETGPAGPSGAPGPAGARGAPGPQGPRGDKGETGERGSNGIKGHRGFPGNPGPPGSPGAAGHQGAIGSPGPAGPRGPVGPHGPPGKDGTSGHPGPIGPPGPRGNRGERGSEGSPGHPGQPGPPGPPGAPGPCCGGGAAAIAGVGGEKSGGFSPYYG

Key:
collagen IIIa (mouse) [1] = target: collagen IIIa (mouse) (UniProt P08121); assay: IF colocalization of VT680 phage with marker, CP mouse pancreas sections; Tukey-Kramer test
collagen IIIa (mouse) [2] = target: collagen IIIa (mouse) (UniProt P08121); assay: IF colocalization; one-way ANOVA and Tukey-Kramer on MCC
collagen IIIa (mouse) [3] = target: collagen IIIa (mouse) (UniProt P08121); assay: summary table of phage clones showing specificity to cellular components (IF colocalization)
collagen IIIa (mouse) [4] = target: collagen IIIa (mouse) (UniProt P08121); assay: immunofluorescence images, CP mouse pancreas (FIG. 7)

Measured: binding

MDLSLKP (peptide, not shown: large carriers) [MDLSLKP (SEQ ID NO: 19) phage clone]
binds: all assays above
